{"source": "patent US20100113430A1", "about": "“THIOXANTHENE DERIVATES USEFUL TO TREAT INFECTIOUS DISEASES” (BKG PHARMA APS, priority 2007, published 2010)", "test_system": "clinically relevant resistant bacterial isolate S. Aureus", "test": "Growth inhibition by cis/trans combinations, resistant isolate S. Aureus", "assay_type": "cell-based", "settings": "Cis-compound 16 μg/ml, Trans-compound 0 μg/ml; MIC(cis alone)/MIC(cis in cis-trans mixture) × 100", "protocol": "Cell growth was tested using the Minimal Inhibitory Concentration (MIC) susceptibility tests by use of the microdilution broth method in accordance to the NCCLS Guidelines (NCCLS Guidelines, Methods for Dilution Antimicrobial Susceptibility Tests for Bacteria That Grow Aerobically; Approved Standard, Sixth Edition, Volume 23; Number 2). The minimum inhibitory concentration (MIC), is defined ad the lowest concentration of drug which inhibits growth of the test organism, in the sense that no visible growth is detected (total inhibition of growth). In example 2 MIC of the compounds used on fungal microorganisms was determined from the IC90 measurements according to NCCLS Guidelines.\nA log phase culture of bacteria was diluted with fresh pre-warmed Mueller-Hinton medium and adjusted to a defined OD at 600 nm in order to give a final concentration of 1×10^4-5 bacteria/ml medium. The bacterial culture was transferred to microtiter-plates and culture was added to each well. Drug was added to the bacterial culture in the wells as two-fold dilution series of drug in order to give final concentrations ranging from 0.03 to 128 μg/ml. Trays were incubated at 37° C. by shaking in a robot analyzer, PowerWavex, software KC^4′ Kebo.Lab, Copenhagen, for 16 h and optical densities were measured at 600 nm during the incubation time in order to record growth curves. […]", "data": [{"smiles": "Clc1ccc2c(c1)/C(=C\\CCN1CCNCC1)c1ccccc1S2", "note": "[N-dealkyl-cis-clopenthixol, cis-1-(3-(2-chlorothioxanthen-9-ylidene)propyl)piperazine]", "values": [{"measurement": "Effect index (cis-compound)", "value": 100}]}]}
